Measured values published in publication PMC5241286.
Results are given in words; binding and its absence hold for the method and conditions named. Some results given as binding are weak or reduced against the parent protein; the word gives no strength.

Molecular target: T1, Mia40 (mitochondrial intermembrane space import and assembly protein 40) (yeast (endogenous in purified yeast mitochondria)) (UniProt P36046)
T1 sequence: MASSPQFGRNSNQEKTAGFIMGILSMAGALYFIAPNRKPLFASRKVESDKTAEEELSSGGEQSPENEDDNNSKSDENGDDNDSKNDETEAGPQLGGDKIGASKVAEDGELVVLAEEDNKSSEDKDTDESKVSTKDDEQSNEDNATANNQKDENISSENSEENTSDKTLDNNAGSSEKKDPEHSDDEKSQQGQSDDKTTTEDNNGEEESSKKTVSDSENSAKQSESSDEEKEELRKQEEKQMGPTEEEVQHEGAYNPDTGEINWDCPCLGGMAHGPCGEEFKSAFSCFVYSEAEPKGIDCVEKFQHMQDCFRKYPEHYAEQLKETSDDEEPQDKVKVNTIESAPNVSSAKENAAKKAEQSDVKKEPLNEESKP
Assay: non-reducing SDS-PAGE and autoradiography of a disulfide-linked intermediate after import into mitochondria; in organello; radiolabeled Cmc1 translation mix added to purified yeast mitochondria (100 ug/mL) in import buffer at 25°C with 1% DMSO, auranofin, MB-6 or MB-7; stopped with 20 mM iodoacetamide; Laemmli buffer without beta-mercaptoethanol

binding: binds
B1: Cmc1 (protein, UniProt P36064 1-111)
chain: MEQNKDPQMISKHSSRLPIWVLSPREEQQARKNLKTETYKKCANFVQAMADCAKANGMKVFPTCDKQRDEMKSCLLFYQTDEKYLDGERDKIVLEKINKLEKLCQKQSSTK
modifications: [35S]-methionine and cysteine labeled
